Source: publication PMC4392632
These are yes or no findings as the source states them, for the method shown. A result given as binding can be weak or reduced; the word gives no strength. Where a sequence is shown, tags or fusion partners need not be part of it.

Experiments:
[1] = target: T1, Phaeodactylum tricornutum cyclin-dependent kinase A2 (CDKA2), GAL4 DNA-binding domain fusion (bait) (Phaeodactylum tricornutum) (UniProt B7GDW6); assay: two-hybrid; pairwise Y2H co-transformation of bait (DBD) and prey (AD) plasmids in yeast PJ694-alpha; growth on medium lacking Leu, Trp and His and X-Gal (LacZ) test; three independent colonies
T1 sequence: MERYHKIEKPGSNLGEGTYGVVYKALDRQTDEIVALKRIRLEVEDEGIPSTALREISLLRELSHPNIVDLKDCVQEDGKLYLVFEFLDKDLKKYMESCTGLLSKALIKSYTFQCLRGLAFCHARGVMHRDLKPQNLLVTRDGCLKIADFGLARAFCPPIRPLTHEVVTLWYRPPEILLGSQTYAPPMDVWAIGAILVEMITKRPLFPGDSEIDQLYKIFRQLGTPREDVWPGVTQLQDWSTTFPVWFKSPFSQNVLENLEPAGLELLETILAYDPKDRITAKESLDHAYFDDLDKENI

[2] = target: T1, Phaeodactylum tricornutum cyclin-dependent kinase A2 (CDKA2), GAL4 DNA-binding domain fusion (bait) (Phaeodactylum tricornutum); assay: two-hybrid; Y2H cDNA library screen; bait fused to GAL4 DNA-binding domain in yeast PJ694-alpha, transformed with prey plasmids of a custom-made P. tricornutum cDNA library; selection on SD lacking Leu, Trp and His; at least 10^6 transformants

Row | Substance | binding [1] | binding [2]
1 | Cdc Kinase Subunit 1 (CKS1), prey (AD) fusion (Phaeodactylum tricornutum) | binds | binds
2 | cyclin P6 (CYCP6), prey (AD) fusion (Phaeodactylum tricornutum) | no binding | –
